Measurements reported in PubChem BioAssay AID1508597 (Cure First, 2020)
This is an unselected part of about 2,100 deposited reagents. 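Calls flag viability under 80% in either arm, not effects specific to rucaparib; the reference for percent is not stated.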 Entries without a mark were called inactive. A reagent listed more than once was tested more than once; the source does not tell the runs apart. Not given: the 100% reference.

Test: 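Survival screen with siRNA in ovarian cancer cells derived from patients, with or without rucaparib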 (primary screen)
System: human ovarian carcinoma lines grown from tumours: OCI-P5x (papillary serous) and OCI-C5x (clear cell)
Knock-down reagent: siRNA pool against human genes, 1.25 pmol siRNA per well
Timing: 72 h or 96 h, depending on the cell culture
Treatment: rucaparib 20 µM (about IC30) or vehicle, present until read-out
Read-out: 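ATP luminescence measured at 72 or 96 h according to the culture, then normalised and expressed as percent viability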
Direction: viability, normalised: higher = more viable cells remaining
Call rule: 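Active when normalised viability falls below 80 percent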
Meaning of the calls: active = viability under 80%; inactive = viability 80% or more

| gene symbol | PubChem SID | rucaparib or vehicle | cell line | technical replicate | viability, normalised (%) |
| --- | --- | --- | --- | --- | --- |
| BRD2 (GeneID 6046) | SID405527541 | Rucaparib | OCI-C5x (clear cell) | 1 | 35.5 (active) |
| BRD2 (GeneID 6046) | SID405527541 | Rucaparib | OCI-C5x (clear cell) | 1 | 40.3 (active) |
| BRD2 (GeneID 6046) | SID405527541 | Rucaparib | OCI-C5x (clear cell) | 2 | 29.1 (active) |
| BRD2 (GeneID 6046) | SID405527541 | Rucaparib | OCI-C5x (clear cell) | 2 | 57.5 (active) |
| BRD2 (GeneID 6046) | SID405527541 | Rucaparib | OCI-C5x (clear cell) | 3 | 35.7 (active) |
| BRD2 (GeneID 6046) | SID405527541 | Rucaparib | OCI-C5x (clear cell) | 3 | 32 (active) |
| BRD2 (GeneID 6046) | SID405527541 | Rucaparib | OCI-P5x (serous) | 1 | 84.2 |
| BRD2 (GeneID 6046) | SID405527541 | Rucaparib | OCI-P5x (serous) | 1 | 55 (active) |
| BRD2 (GeneID 6046) | SID405527541 | Rucaparib | OCI-P5x (serous) | 2 | 61.6 (active) |
| BRD2 (GeneID 6046) | SID405527541 | Rucaparib | OCI-P5x (serous) | 2 | 81.9 |
| BRD2 (GeneID 6046) | SID405527541 | Rucaparib | OCI-P5x (serous) | 3 | 59.2 (active) |
| BRD2 (GeneID 6046) | SID405527541 | Rucaparib | OCI-P5x (serous) | 3 | 60.1 (active) |
| BRD2 (GeneID 6046) | SID405527541 | Vehicle | OCI-C5x (clear cell) | 1 | 43.4 (active) |
| BRD2 (GeneID 6046) | SID405527541 | Vehicle | OCI-C5x (clear cell) | 1 | 22.9 (active) |
| BRD2 (GeneID 6046) | SID405527541 | Vehicle | OCI-C5x (clear cell) | 2 | 26.8 (active) |
| BRD2 (GeneID 6046) | SID405527541 | Vehicle | OCI-C5x (clear cell) | 2 | 59.7 (active) |
| BRD2 (GeneID 6046) | SID405527541 | Vehicle | OCI-C5x (clear cell) | 3 | 39.8 (active) |
| BRD2 (GeneID 6046) | SID405527541 | Vehicle | OCI-C5x (clear cell) | 3 | 32.6 (active) |
| BRD2 (GeneID 6046) | SID405527541 | Vehicle | OCI-P5x (serous) | 1 | 75.5 (active) |
| BRD2 (GeneID 6046) | SID405527541 | Vehicle | OCI-P5x (serous) | 1 | 60.2 (active) |
| BRD2 (GeneID 6046) | SID405527541 | Vehicle | OCI-P5x (serous) | 2 | 60.3 (active) |
| BRD2 (GeneID 6046) | SID405527541 | Vehicle | OCI-P5x (serous) | 2 | 88.5 |
| BRD2 (GeneID 6046) | SID405527541 | Vehicle | OCI-P5x (serous) | 3 | 51.9 (active) |
| BRD2 (GeneID 6046) | SID405527541 | Vehicle | OCI-P5x (serous) | 3 | 78.1 (active) |
| APEX1 (GeneID 328) | SID405527967 | Rucaparib | OCI-C5x (clear cell) | 1 | 52.7 (active) |
| APEX1 (GeneID 328) | SID405527967 | Rucaparib | OCI-C5x (clear cell) | 1 | 52.4 (active) |
| APEX1 (GeneID 328) | SID405527967 | Rucaparib | OCI-C5x (clear cell) | 2 | 46 (active) |
| APEX1 (GeneID 328) | SID405527967 | Rucaparib | OCI-C5x (clear cell) | 2 | 57.2 (active) |
| APEX1 (GeneID 328) | SID405527967 | Rucaparib | OCI-C5x (clear cell) | 3 | 48.4 (active) |
| APEX1 (GeneID 328) | SID405527967 | Rucaparib | OCI-C5x (clear cell) | 3 | 55.8 (active) |
| APEX1 (GeneID 328) | SID405527967 | Rucaparib | OCI-P5x (serous) | 1 | 96.8 |
| APEX1 (GeneID 328) | SID405527967 | Rucaparib | OCI-P5x (serous) | 1 | 95.4 |
| APEX1 (GeneID 328) | SID405527967 | Rucaparib | OCI-P5x (serous) | 2 | 86.5 |
| APEX1 (GeneID 328) | SID405527967 | Rucaparib | OCI-P5x (serous) | 2 | 92.4 |
| APEX1 (GeneID 328) | SID405527967 | Rucaparib | OCI-P5x (serous) | 3 | 83.5 |
| APEX1 (GeneID 328) | SID405527967 | Rucaparib | OCI-P5x (serous) | 3 | 106 |
| APEX1 (GeneID 328) | SID405527967 | Vehicle | OCI-C5x (clear cell) | 1 | 37.9 (active) |
| APEX1 (GeneID 328) | SID405527967 | Vehicle | OCI-C5x (clear cell) | 1 | 51.4 (active) |
| APEX1 (GeneID 328) | SID405527967 | Vehicle | OCI-C5x (clear cell) | 2 | 35.3 (active) |
| APEX1 (GeneID 328) | SID405527967 | Vehicle | OCI-C5x (clear cell) | 2 | 47.2 (active) |
| APEX1 (GeneID 328) | SID405527967 | Vehicle | OCI-C5x (clear cell) | 3 | 41.7 (active) |
| APEX1 (GeneID 328) | SID405527967 | Vehicle | OCI-C5x (clear cell) | 3 | 46.7 (active) |
| APEX1 (GeneID 328) | SID405527967 | Vehicle | OCI-P5x (serous) | 1 | 82.1 |
| APEX1 (GeneID 328) | SID405527967 | Vehicle | OCI-P5x (serous) | 1 | 66.7 (active) |
| APEX1 (GeneID 328) | SID405527967 | Vehicle | OCI-P5x (serous) | 2 | 76 (active) |
| APEX1 (GeneID 328) | SID405527967 | Vehicle | OCI-P5x (serous) | 2 | 75.8 (active) |
| APEX1 (GeneID 328) | SID405527967 | Vehicle | OCI-P5x (serous) | 3 | 77.5 (active) |
| APEX1 (GeneID 328) | SID405527967 | Vehicle | OCI-P5x (serous) | 3 | 77.1 (active) |
| TXK (GeneID 7294) | SID405526400 | Rucaparib | OCI-C5x (clear cell) | 1 | 37.6 (active) |
| TXK (GeneID 7294) | SID405526400 | Rucaparib | OCI-C5x (clear cell) | 1 | 40.1 (active) |
| TXK (GeneID 7294) | SID405526400 | Rucaparib | OCI-C5x (clear cell) | 2 | 52.6 (active) |
| TXK (GeneID 7294) | SID405526400 | Rucaparib | OCI-C5x (clear cell) | 2 | 59.2 (active) |
| TXK (GeneID 7294) | SID405526400 | Rucaparib | OCI-C5x (clear cell) | 3 | 56.4 (active) |
| TXK (GeneID 7294) | SID405526400 | Rucaparib | OCI-C5x (clear cell) | 3 | 49.9 (active) |
| TXK (GeneID 7294) | SID405526400 | Rucaparib | OCI-P5x (serous) | 1 | 77.6 (active) |
| TXK (GeneID 7294) | SID405526400 | Rucaparib | OCI-P5x (serous) | 1 | 59.8 (active) |
| TXK (GeneID 7294) | SID405526400 | Rucaparib | OCI-P5x (serous) | 2 | 79.5 (active) |
| TXK (GeneID 7294) | SID405526400 | Rucaparib | OCI-P5x (serous) | 2 | 52.3 (active) |
| TXK (GeneID 7294) | SID405526400 | Rucaparib | OCI-P5x (serous) | 3 | 67.6 (active) |
| TXK (GeneID 7294) | SID405526400 | Rucaparib | OCI-P5x (serous) | 3 | 65.7 (active) |
| TXK (GeneID 7294) | SID405526400 | Vehicle | OCI-C5x (clear cell) | 1 | 47 (active) |
| TXK (GeneID 7294) | SID405526400 | Vehicle | OCI-C5x (clear cell) | 1 | 57 (active) |
| TXK (GeneID 7294) | SID405526400 | Vehicle | OCI-C5x (clear cell) | 2 | 68.6 (active) |
| TXK (GeneID 7294) | SID405526400 | Vehicle | OCI-C5x (clear cell) | 2 | 52.4 (active) |
| TXK (GeneID 7294) | SID405526400 | Vehicle | OCI-C5x (clear cell) | 3 | 42.5 (active) |
| TXK (GeneID 7294) | SID405526400 | Vehicle | OCI-C5x (clear cell) | 3 | 52.8 (active) |
| TXK (GeneID 7294) | SID405526400 | Vehicle | OCI-P5x (serous) | 1 | 68.8 (active) |
| TXK (GeneID 7294) | SID405526400 | Vehicle | OCI-P5x (serous) | 1 | 67.5 (active) |
| TXK (GeneID 7294) | SID405526400 | Vehicle | OCI-P5x (serous) | 2 | 76.6 (active) |
| TXK (GeneID 7294) | SID405526400 | Vehicle | OCI-P5x (serous) | 2 | 70.3 (active) |
| TXK (GeneID 7294) | SID405526400 | Vehicle | OCI-P5x (serous) | 3 | 75 (active) |
| TXK (GeneID 7294) | SID405526400 | Vehicle | OCI-P5x (serous) | 3 | 69.5 (active) |

Copied from the entries so far for reference:
| gene symbol | PubChem SID | rucaparib or vehicle | cell line | technical replicate | viability, normalised (%) |
| --- | --- | --- | --- | --- | --- |
| TXK (GeneID 7294) | SID405526400 | Rucaparib | OCI-C5x (clear cell) | 2 | 59.2 (active) |
| TXK (GeneID 7294) | SID405526400 | Rucaparib | OCI-C5x (clear cell) | 3 | 56.4 (active) |
| TXK (GeneID 7294) | SID405526400 | Rucaparib | OCI-C5x (clear cell) | 3 | 49.9 (active) |
| TXK (GeneID 7294) | SID405526400 | Rucaparib | OCI-P5x (serous) | 1 | 77.6 (active) |
| TXK (GeneID 7294) | SID405526400 | Rucaparib | OCI-P5x (serous) | 1 | 59.8 (active) |
| TXK (GeneID 7294) | SID405526400 | Rucaparib | OCI-P5x (serous) | 2 | 79.5 (active) |
| TXK (GeneID 7294) | SID405526400 | Rucaparib | OCI-P5x (serous) | 2 | 52.3 (active) |
